The text below walks through data of US10006080B2, “High-selectivity contact activation inhibitor based on infestin-4” (OBSCHESTVO S OGRANICHENNOY OTVETSTVENNOSTYU …, priority 2013, dated 2018).

The chains behind the UniProt entries cited, without tags or fusion partners. Where a name states a change or a piece, a line headed by the entry shows the natural chain unless it says otherwise.
UniProt P00742: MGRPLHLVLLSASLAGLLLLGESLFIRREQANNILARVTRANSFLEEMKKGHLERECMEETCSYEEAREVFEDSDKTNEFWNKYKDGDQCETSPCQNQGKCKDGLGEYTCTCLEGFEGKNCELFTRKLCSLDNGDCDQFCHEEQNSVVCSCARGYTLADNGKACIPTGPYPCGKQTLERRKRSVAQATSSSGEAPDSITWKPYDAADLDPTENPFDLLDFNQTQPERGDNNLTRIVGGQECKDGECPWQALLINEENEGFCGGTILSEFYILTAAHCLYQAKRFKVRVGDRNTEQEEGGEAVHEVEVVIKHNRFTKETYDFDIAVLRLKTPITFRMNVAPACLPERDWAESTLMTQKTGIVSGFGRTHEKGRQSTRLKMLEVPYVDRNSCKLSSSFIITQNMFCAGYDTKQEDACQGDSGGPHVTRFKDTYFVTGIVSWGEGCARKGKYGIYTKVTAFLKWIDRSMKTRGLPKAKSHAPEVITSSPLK

Results are given in words; binding and its absence hold for the method and conditions named. A result given as binding can be weak or reduced; the word gives no strength. For some assays here: Sequences can lack the tags named with a protein.

One assay addresses T1, fXa (UniProt P00742 41-179; P00742 235-488, limits assumed).
T1 construct: also called factor Xa
The experiment in a line: chromogenic protease inhibition test in buffer.

The target of a further assay is activated protein C. The assay can be described thus: chromogenic protease inhibition test in buffer.

B1: native infestin-4, fusion protein with thioredoxin I E. coli containing polyhistidine clusters (other)
chain: EVRNPCACFRNYVPVCGSDGKTYGNPCMLNCAAQTKVPGLKLVHEGRCQRSNVEQF
notes: It says MutB differs from it at positions 9, 12 and 14 only; also called Inf4; not shown: thioredoxin I of E. coli, fusion partner; polyhistidine clusters
As for B1, in the assay with fXa, the binding result is reported as “binds”.

B2: corn trypsin inhibitor (other, UniProt P01088 29-138, looked up)
chain: SAGTSCVPGWAIPHNPLPSCRWYVTSRTCGIGPRLPWPELKRRCCRELADIPAYCRCTALSILMDGAIPPGPDAQLEGRLEDLPGCPREVQRGFAATLVTEAECNLATIS
notes: Isolated from corn; also called CTI
In the case of B2, the binding entry with activated protein C is “binds”.
